In a protein production outcome set (Wang et al. 2014):

Experiment: label from the status in PepcDB records

Row | Sequence | protein production
1 | MTSVTSIPPAKTMSAFASLLLGGAVLGAVTVQGWLPLASRAQSISAPSGLSRQSFVAAAVERSGPAVVTLETARTVTSSGMTGLPKGLLMDPLFRHFFGVPGASAPRSRVQRGQGSGVIFDAEGLLLTNAHVVEGADTLQVELTDGRSVEAKVIGKDSLTDLAVVRLEGKGPWPIAALGDSDRLKVGDWAIAVGNPYGLENTVTMGIISNLNRNVAQLGISGKRLDLIQTDAAINPGNSGGPLLNAEGEVIGINTLVRSGPGAGLGFAIPINRARSIAQQLVNKGRASHPVIGVGLAAGPLGPVIRSVQPGAPAAGAGLKPGDVITAINGVATASPTQVVATVERNGVGRQLTLSIKRGETTLTVSLTPMDLAA | failed
2 | SSASFTKEQADAIRRIRNSKDSWDMLGVKPGASRDEVNKAYRKLAVLLHPDKCVAPGSEDAFKAVVNARTALLKNIK | not failed
